# Laboratory results published in patent US20240159706A1, “MALDI-MS METHOD, PHOTO-SENSITIVE MALDI MATRIX COMPOSITE AND PHOTO-CAGED MALDI MATRIX COMPOUND FOR USE IN SAID METHOD AND RESPECTIVE USES” (SIRIUS FINE CHEMICALS SICHEM GMBH, priority 2021, published 2024).
# Assay: MALDI-TOF MSI of lipids from porcine brain tissue before and after 18 hrs incubation under vacuum (Example 8)
# Conditions: 18 hrs in MALDI source, 2×10^−7 mbar, 35° C.
# Protocol: An ITO glass slide with two pieces of porcine brain tissue sections was prepared as described above (cf. Example 4a). An optical image was taken thereof for the registration process in the software FlexImaging. The workflow for the present example is explained below with reference to FIG. 14.
# The Photo-caged MALDI Matrix Compound of Ex. 1.1 (DMNB-2,5-DHAP) and the conventional (uncaged) MALDI matrix compound 2,5-DHAP were both dissolved at concentrations of 2.5 mg/mL (acetonitrile/water 85:15, v/v+0.1% trifluoroacetic acid) and sprayed on top of the two different pieces of porcine brain tissue sections (preparation see above), using the spray parameters as described in Example 4a above. Homogenous and small crystals of DMNB-2,5-DHAP were subsequently observed on the ITO glass slide as well as on the porcine brain tissue section. 1st and 2nd MALDI imaging measurements and optical images were then made (optical images before and after 1st MALDI imaging measurement and directly before 2nd MALDI imaging measurement) of the Photo-caged MALDI Matrix Compound and of the conventional MALDI matrix compound on the ITO glass slides (glass surface sections and porcine tissue sections), respectively. After the 1st MALDI imaging measurement, the slides were left inside the MALDI source for incubation (18 hrs, for incubation conditions see below) before the 2nd MALDI imaging measurements were made.
# MALDI imaging measurements were performed for the Photo-caged MALDI Matrix Compound of Ex. 1.1 and the conventional MALDI matrix compound 2,5-DHAP on a rapifleX™ MALDI TOF mass spectrometer (Bruker Daltonics) in reflector-negative ion mode in a mass range from m/z 100 to 1700 (ion suppression up to 80 m/z) using the FlexImaging 5.0 software (Bruker Daltonics). Inside the MALDI ion source, a vacuum of 2×10^−7 mbar and a temperature of 35° C. (incubation conditions) were observed. The acquisition method was calibrated using a polyaniline solution and matrix. Settings: acquisition mode: 250 laser shots at 10 kHz repetition rate per position; spatial resolution: 50 μm; digitizer: 1.25 Gs/s; Ion Source: 1 to 20 kV; PIT: 2.47 kV; lens: 11.4 kV; Pulsed Ion Extraction: 110 ns. The laser energy was determined for each matrix. Data visualization was performed using FlexImaging 5.0 software (Bruker Daltonics). Total ion count (TIC) normalization was performed for all data.
row,Compound,ion images of lipids from porcine brain tissue after incubation under vacuum
1,"COc1cc(COc2ccc(O)c(C(C)=O)c2)c([N+](=O)[O-])cc1OC [Ex. 1.1, 1-(5-((4,5-Dimethoxy-2-nitrobenzyl)oxy)-2-hydroxyphenyl)ethan-1-one]",still visible
2,"Nc1cccc2c(N)cccc12 [1,5-DAN, 1,5-diaminonaphthalene, reference compound]",decreased significantly
3,"Sc1nc2ccccc2s1 [2-MBT, 2-mercaptobenzothiazole, reference compound]",decreased significantly
4,"COc1cc(CNc2cccc3c(N)cccc23)c([N+](=O)[O-])cc1OC [Ex. 1.2, N^1-(4,5-dimethoxy-2-nitrobenzyl)naphthalene-1,5-diamine]",still visible
5,"COc1cc(CSc2nc3ccccc3s2)c([N+](=O)[O-])cc1OC [Ex. 1.5, 2-((4,5-Dimethoxy-2-nitrobenzyl)thio)benzo[d]thiazole]",still visible
6,"COc1cc(COc2cccc(O)c2C(C)=O)c([N+](=O)[O-])cc1OC [Ex. 1.4, 1-(2-((4,5-Dimethoxy-2-nitrobenzyl)oxy)-6-hydroxyphenyl)ethan-1-one]",still visible
7,"CC(=O)c1cc(O)ccc1O [2,5-DHAP, 2,5-dihydroxyacetophenone, reference compound]",no or nearly no ion images
